PubChem BioAssay AID686938 | Drosophila RNAi Screening Center – 2013

Aim: 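Knock-downs reducing store-operated calcium influx in Drosophila cells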 (primary screen)
Cell system: Drosophila S2R+ cells
Knock-down reagent: long dsRNA against Drosophila genes, about 0.25 µg dsRNA per well, roughly 10,000 cells
Duration: 5 days of knock-down before the calcium assay
Treatment: thapsigargin (SERCA pump blocker) to empty calcium stores; entry signal taken 4 min after adding it
Measured: 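Duplicate raw fluo-4 intensities per well from a plate reader, at rest and four minutes after thapsigargin emptied calcium stores; entry-to-rest ratio filled for only some wells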
Reading the numbers: calcium entry signal: higher = stronger calcium signal after store depletion; entry to resting ratio: higher = more calcium entry relative to resting level; resting calcium signal: higher = higher resting calcium signal
Active means: 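Called when the plate z-score of the entry-to-rest ratio, mean of duplicates, falls below −3; wells with low overall dye signal (Fmax z below −2) or more than five off-targets excluded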
Meaning of the calls: active = strongly reduced calcium entry; inactive = no strong reduction
In all, the deposit lists about 23,000 reagents; below is an unselected part of those with a known target gene and a result. In the full data, 75 (0.33%) were called active. 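Raw plate signals without normalisation; calls rest on plate z-scores that were not deposited; ratio present for only 364 wells.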 A plus sign joins genes that one reagent is predicted to hit. No sequences are given here. Not given: the dose of the treatment.

no.	target gene	amplicon	calcium entry signal, replicate 1 (fluorescence units)	calcium entry signal, replicate 2 (fluorescence units)	entry to resting ratio	resting calcium signal, replicate 1 (fluorescence units)	resting calcium signal, replicate 2 (fluorescence units)	Call
1	Pgant2	DRSC00587	3.21e7	3.17e7		1.54e7	1.45e7	inactive
2	CG13255	DRSC11702	2.87e7	4.89e7		1.44e7	2.04e7	inactive
3	14-3-3zeta	DRSC05028	4.41e7	4.15e7		2.07e7	1.97e7	inactive
4	CG6870	DRSC02998	4.82e7	3.35e7		2.10e7	1.53e7	inactive
5	CG8032	DRSC16365	4.16e7	2.71e7		2.17e7	1.44e7	inactive
6	CG30484	DRSC05457	4.87e7	5.31e7		2.56e7	2.23e7	inactive
7	Arpc3B	DRSC20126	2.69e7	2.04e7		1.77e7	1.22e7	inactive
8	hgo	DRSC03544	4.60e7	5.77e7		2.02e7	2.45e7	inactive
9	CG3649	DRSC04400	4.28e7	4.65e7		2.08e7	2.02e7	inactive
10	rdo	DRSC02452	4.03e7			2.00e7		inactive
11	CG3253	DRSC04350	4.01e7	3.51e7		2.00e7	1.78e7	inactive
12	Rim2	DRSC00073	4.48e7	4.04e7		2.17e7	1.92e7	inactive
13	Rim2	DRSC00520	5.05e7			2.58e7		inactive
14	Rim2	DRSC22699	3.29e7	3.13e7		1.72e7	1.41e7	inactive
15	Nha2 + asRNA:CR43454	DRSC13594	3.26e7	3.02e7		1.77e7	1.61e7	inactive
16	Ag5r	DRSC19327	2.78e7	3.17e7		1.30e7	1.47e7	inactive
17	CG16957	DRSC02545	3.70e7	2.06e7		1.69e7	1.12e7	inactive
18	CG12159	DRSC06114	4.22e7	1.95e7		1.89e7	1.17e7	inactive
19	RpLP0	DRSC11878	2.37e7	3.65e7		1.26e7	1.82e7	inactive
20	RpLP0	DRSC22110	1.15e7	2.44e7		7.97e6	1.40e7	inactive
21	RpS9	DRSC11273	1.67e7	1.78e7		1.60e7	9.82e6	inactive
22	Cdc23	DRSC02708	2.52e7			1.99e7		active
23	CG11588	DRSC09145	5.29e7	4.88e7		2.76e7	2.35e7	inactive
24	CG11588	DRSC09846	2.83e7	3.36e7		1.42e7	1.41e7	inactive
25	Nfs1	DRSC02154	6.43e7			2.85e7		inactive
26	Fum4	DRSC22577	2.82e7	3.06e7		1.47e7	1.43e7	inactive
27	Nepl11	DRSC12333	4.02e7	4.21e7		1.91e7	2.15e7	inactive
28	Hsc70-4	DRSC16711	1.86e7	1.86e7		7.13e7	1.08e7	inactive
29	TwdlL	DRSC16042	5.09e7	4.57e7		2.16e7	2.12e7	inactive
30	Ldsdh1	DRSC18219	3.18e7	3.69e7		1.46e7	1.68e7	inactive
31	vig	DRSC03630	3.47e7	5.57e7		1.53e7	2.41e7	inactive
32	vig	DRSC03631	4.42e7			2.16e7		inactive
33	vig	DRSC21672	4.60e7	3.88e7		2.81e7	1.80e7	inactive
34	Gr5a	DRSC18085	2.81e7	4.00e7		1.39e7	1.71e7	inactive
35	ort	DRSC16240	4.45e7	4.62e7		4.39e7	2.03e7	inactive
36	CG5731	DRSC02883	5.28e7	4.36e7		2.05e7	1.93e7	inactive
37	Hpr1	DRSC12296	3.61e7	4.36e7		1.33e7	1.89e7	inactive
38	CG7950 + Rpp14a	DRSC16353	3.65e7	4.21e7		1.57e7	1.86e7	inactive
39	CG42540	DRSC08327	6.59e7	5.37e7		4.28e7	2.39e7	inactive
40	CG42540	DRSC08328	2.30e7	4.16e7		1.19e7	1.82e7	inactive
41	CG42540	DRSC08593	1.75e7	3.38e7		1.16e7	1.82e7	inactive
42	CG42540	DRSC23011	3.80e7	3.41e7		1.80e7	1.65e7	inactive
43	CG9084	DRSC07335	1.64e7	2.85e7		1.00e7	1.26e7	inactive
44	Loxl1	DRSC14303	3.43e7	3.90e7	2.1	1.61e7	1.63e7	inactive
45	CG14609	DRSC12553	4.86e7	3.46e7		2.39e7	1.56e7	inactive
46	CG9394	DRSC04550	4.73e7	5.13e7		2.17e7	2.16e7	inactive
47	Rab39	DRSC17827	3.70e7	3.85e7		1.71e7	1.85e7	inactive
48	CG10081	DRSC05962	5.13e7	5.08e7		2.25e7	2.36e7	inactive
49	Fer3	DRSC16133	2.83e7	3.17e7		1.34e7	1.48e7	inactive
50	CG5850	DRSC02905	4.51e7			2.20e7		inactive
51	Syb	DRSC07559	3.86e7	3.82e7		1.99e7	2.13e7	inactive
52	CG13344	DRSC06378	2.96e7	3.28e7		1.38e7	1.61e7	inactive
53	so	DRSC07693	4.94e7	6.90e7		2.34e7	2.81e7	inactive
54	so	DRSC23096	3.98e7	4.12e7		1.76e7	1.69e7	inactive
55	Ilp4	DRSC10701	3.38e7	5.16e7		1.67e7	2.16e7	inactive
56	RpS13	DRSC03419	8.35e6			8.35e6		inactive
57	CG30151	DRSC05888	2.11e7	3.93e7		1.03e7	1.92e7	inactive
58	myd	DRSC14762	3.35e7	2.78e7		1.86e7	1.51e7	inactive
59	myd	DRSC15512	3.85e7	3.88e7		4.34e7	1.63e7	inactive
60	CG31663	DRSC00078	3.71e7	3.96e7		1.99e7	1.91e7	inactive
61	CG31663	DRSC00389	5.09e7			2.63e7		inactive
62	CG31663	DRSC00390	3.84e7	2.66e7		1.61e7	1.40e7	inactive
63	CG31663	DRSC00393	3.62e7	3.49e7		1.74e7	1.55e7	inactive
64	Prx3	DRSC15883	3.71e7	3.33e7		1.74e7	1.58e7	inactive
65	Khc-73	DRSC07449	3.09e7	3.05e7		1.36e7	1.44e7	inactive
66	CG3708	DRSC18646	3.19e7	5.13e7	2.1	1.53e7	1.91e7	inactive
67	Mad	DRSC00759	2.62e7	2.27e7		1.38e7	1.12e7	inactive
68	CG11294	DRSC17777	3.38e7	3.20e7		1.80e7	1.79e7	inactive
69	CG13315	DRSC09986	3.36e7	3.95e7		1.63e7	1.60e7	inactive
70	Pfdn2	DRSC10618	2.73e7	3.89e7		1.36e7	1.61e7	inactive
71	CG7215 + Prx5	DRSC16214	3.10e7	3.53e7		3.25e7	1.50e7	inactive
72	CG7215 + Prx5	DRSC16215	4.03e7	3.39e7		1.82e7	1.50e7	inactive
73	sac	DRSC12237	3.30e7	5.58e7		1.61e7	2.34e7	inactive
74	scw	DRSC01711	3.14e7	3.63e7		1.71e7	1.87e7	inactive
75	scw	DRSC21252	5.48e7	4.60e7		2.63e7	2.04e7	inactive

Entries listed so far whose target name begins with A or a (2):
target gene	amplicon	calcium entry signal, replicate 1 (fluorescence units)	calcium entry signal, replicate 2 (fluorescence units)	entry to resting ratio	resting calcium signal, replicate 1 (fluorescence units)	resting calcium signal, replicate 2 (fluorescence units)	Call
Arpc3B	DRSC20126	2.69e7	2.04e7		1.77e7	1.22e7	inactive
Ag5r	DRSC19327	2.78e7	3.17e7		1.30e7	1.47e7	inactive
